No constants are given. Whether binding was seen depends on the method and setting. Some entries that bind do so weakly or less than the wild type. Tags and fused reporters may be left off the sequences shown.
Tests used:
GFP-POLD1 (human) = GFP-POLD1 (human) (UniProt P28340); test: MST; whole cell lysate of 293T cells overexpressing the GFP fusion; MBI peptide titrated in 16 two-fold steps from 2.5 mM; Monolith NT.115; only the binder purified
GFP-FBXW7α (human) = GFP-FBXW7α (human) (UniProt Q969H0); test: as above

Sequences of proteins named here, by UniProt entry; tags and fusion partners are left off.
UniProt P28340: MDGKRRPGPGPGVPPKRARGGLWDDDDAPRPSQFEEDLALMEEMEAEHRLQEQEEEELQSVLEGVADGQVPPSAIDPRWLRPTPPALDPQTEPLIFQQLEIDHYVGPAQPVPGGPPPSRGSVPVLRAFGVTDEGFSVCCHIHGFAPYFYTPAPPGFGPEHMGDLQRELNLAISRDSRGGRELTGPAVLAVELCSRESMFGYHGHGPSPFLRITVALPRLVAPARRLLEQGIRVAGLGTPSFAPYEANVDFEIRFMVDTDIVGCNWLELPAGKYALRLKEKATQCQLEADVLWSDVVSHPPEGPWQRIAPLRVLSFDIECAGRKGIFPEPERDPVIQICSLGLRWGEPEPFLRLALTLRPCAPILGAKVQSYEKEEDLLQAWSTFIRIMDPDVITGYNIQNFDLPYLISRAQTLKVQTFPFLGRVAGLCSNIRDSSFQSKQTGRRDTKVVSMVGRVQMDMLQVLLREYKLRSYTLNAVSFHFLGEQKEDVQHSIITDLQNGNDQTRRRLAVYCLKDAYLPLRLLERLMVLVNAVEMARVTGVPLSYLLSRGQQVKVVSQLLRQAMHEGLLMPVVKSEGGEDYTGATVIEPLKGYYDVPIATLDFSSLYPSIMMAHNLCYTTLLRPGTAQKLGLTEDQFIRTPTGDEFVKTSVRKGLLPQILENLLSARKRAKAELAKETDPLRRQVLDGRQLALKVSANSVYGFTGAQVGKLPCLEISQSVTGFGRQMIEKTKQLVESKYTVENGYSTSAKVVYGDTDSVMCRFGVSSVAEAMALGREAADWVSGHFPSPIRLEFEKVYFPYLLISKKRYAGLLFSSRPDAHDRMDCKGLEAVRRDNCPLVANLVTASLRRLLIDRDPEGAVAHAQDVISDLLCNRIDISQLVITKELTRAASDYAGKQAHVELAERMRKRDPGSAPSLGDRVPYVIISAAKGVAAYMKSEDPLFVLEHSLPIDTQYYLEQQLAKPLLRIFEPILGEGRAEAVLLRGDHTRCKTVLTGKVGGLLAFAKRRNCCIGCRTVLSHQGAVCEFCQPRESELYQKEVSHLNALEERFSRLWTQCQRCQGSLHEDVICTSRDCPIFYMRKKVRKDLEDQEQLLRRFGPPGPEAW
UniProt Q969H0: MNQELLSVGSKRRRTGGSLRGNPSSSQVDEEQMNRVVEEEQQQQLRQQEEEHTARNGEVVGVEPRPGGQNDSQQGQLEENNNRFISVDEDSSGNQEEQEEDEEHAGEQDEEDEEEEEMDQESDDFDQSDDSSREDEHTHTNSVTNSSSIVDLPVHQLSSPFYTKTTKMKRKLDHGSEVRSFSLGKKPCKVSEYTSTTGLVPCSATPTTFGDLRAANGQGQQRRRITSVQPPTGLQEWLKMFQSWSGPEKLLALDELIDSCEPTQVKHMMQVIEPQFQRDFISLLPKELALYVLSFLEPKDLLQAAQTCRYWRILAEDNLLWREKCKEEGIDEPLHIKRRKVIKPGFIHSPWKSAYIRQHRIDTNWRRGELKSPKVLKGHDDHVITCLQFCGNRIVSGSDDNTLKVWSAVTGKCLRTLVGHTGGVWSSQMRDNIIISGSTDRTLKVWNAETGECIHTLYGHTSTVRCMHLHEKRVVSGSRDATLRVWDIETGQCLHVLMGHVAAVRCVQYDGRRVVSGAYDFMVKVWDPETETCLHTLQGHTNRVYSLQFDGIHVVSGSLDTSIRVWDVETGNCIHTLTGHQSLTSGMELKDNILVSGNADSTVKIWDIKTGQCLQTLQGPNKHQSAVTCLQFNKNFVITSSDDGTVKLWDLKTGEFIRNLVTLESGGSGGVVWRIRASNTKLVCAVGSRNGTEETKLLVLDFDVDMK

With APSEDIWKKFELLPAPPLSP [MB1-T58A peptide] the binding (GFP-POLD1 (human)) was “binds”.

With APSEDIWKKFELLPDPPLSP [MB1-T58D peptide] the binding (GFP-POLD1 (human)) was “binds”.

In the case of APSEDIWKKFELLPTPPLSP [MYC-MB1 (WT) peptide], the binding (GFP-FBXW7α (human)) is reported as “binds” and the binding (GFP-POLD1 (human)) is reported as “binds”.

From PMC10140023
